No constants are given. Whether binding was seen depends on the method and setting. Binding seen in cells or lysates may run through a third protein. Some binding calls cover weakened binding; strength is not graded here.
Molecular target: T1, TWIST1 (mouse (endogenous in embryonic hindbrain tissue)) (UniProt P26687)
T1 sequence: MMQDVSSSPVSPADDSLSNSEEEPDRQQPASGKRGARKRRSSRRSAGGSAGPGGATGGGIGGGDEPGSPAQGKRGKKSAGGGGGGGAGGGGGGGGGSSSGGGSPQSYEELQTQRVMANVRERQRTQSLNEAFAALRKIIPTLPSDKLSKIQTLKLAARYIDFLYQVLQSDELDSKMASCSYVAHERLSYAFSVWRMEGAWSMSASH
Experiment: co-IP

Sequences of proteins named here, by UniProt entry; tags and fusion partners are left off.
UniProt Q02248: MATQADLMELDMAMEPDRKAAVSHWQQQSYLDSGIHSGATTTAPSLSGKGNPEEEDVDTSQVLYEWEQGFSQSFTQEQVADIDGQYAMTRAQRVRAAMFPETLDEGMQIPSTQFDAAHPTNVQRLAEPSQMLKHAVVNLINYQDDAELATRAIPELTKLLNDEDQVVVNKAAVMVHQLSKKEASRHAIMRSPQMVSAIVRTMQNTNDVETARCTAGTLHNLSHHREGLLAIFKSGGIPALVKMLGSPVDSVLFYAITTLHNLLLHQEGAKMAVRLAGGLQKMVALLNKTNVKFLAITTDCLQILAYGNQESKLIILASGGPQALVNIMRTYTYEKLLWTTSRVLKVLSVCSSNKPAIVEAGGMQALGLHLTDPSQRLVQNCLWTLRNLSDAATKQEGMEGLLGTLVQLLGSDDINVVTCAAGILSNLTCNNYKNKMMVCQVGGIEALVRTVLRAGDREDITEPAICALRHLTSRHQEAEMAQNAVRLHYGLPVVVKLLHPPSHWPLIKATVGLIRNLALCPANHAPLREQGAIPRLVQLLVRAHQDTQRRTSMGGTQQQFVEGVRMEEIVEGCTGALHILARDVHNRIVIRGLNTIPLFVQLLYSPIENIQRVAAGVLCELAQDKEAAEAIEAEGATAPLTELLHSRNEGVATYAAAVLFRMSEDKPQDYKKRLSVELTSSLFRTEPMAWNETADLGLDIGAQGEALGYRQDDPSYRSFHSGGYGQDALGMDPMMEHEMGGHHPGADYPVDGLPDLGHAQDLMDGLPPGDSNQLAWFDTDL

β-CATENIN (from UniProt Q02248 1-781) was tested, and the binding was “binds”.

— doi:10.1101/2021.08.22.457283
